{
  "source": "the supplement of paper PMC8728848",
  "binders": {"B1": {"name": "AT1G80310(18) (Arabidopsis thaliana), Q0WP36 (protein)", "chain": "METTTTPLLPGDRSRCGWLRRRLRLKNPLSSELSGAVGDLGTFIPIVLTLTLVSNLDLSTTLIFTGFYNIATGLLFDIPMPVQPMKSIAAVAVSESPHLTPSQIAAAGASTAATLLLLGATGAMSFLYNIIPLPVVRGVQLSQGLQFAFTAIKYVRFNYDTATLKPSSSPRIWLGLDGLILALAALLFIILSTGSGNDREAEDGDLAETSSNESQSRRRRLRLLSSIPSALIVFALGLVLCFIRDPSIFKDLKFGPSKFHILRISWDDWKIGFLRAAIPQIPLSVLNSVIAVCKLSNDLFDKELSATTVSISVGVMNLIGCWFGAMPVCHGAGGLAGQYRFGARSGLSVIFLGIGKLIVGLVFGNSFVRILSQFPIGILGVLLLFAGIELAMASKDMNSKEDSFIMLVCAAVSMTGSSAALGFGCGVVLYLLLKLRTLDCSSVTLFSRSSDESQVDSEAAPRDV"}},
  "test_in_all_cases": "glycan array binding signal (z-score within array); higher = stronger binding",
  "details_in_all_cases": "glycan notation: IUPAC condensed, linker removed",
  "key": {"[1]": {"target": "Neu5Ac(a2-6)Gal(b1-4)GlcNAc(b1-2)Man(a1-3)[GlcNAc(b1-4)][Neu5Ac(a2-6)Gal(b1-4)GlcNAc(b1-2)Man(a1-6)]Man(b1-4)GlcNAc(b1-4)GlcNAc", "outline": "(§1)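 Arrays were curated from the Consortium for Functional Glycomics database, 3228 in total, and kept only where the protein sequence was available. Binding is expressed as a within-array Z-score. This score was averaged across arrays of the same protein sequence at different concentrations or buffers and across linkers, and negative values can be read as non-binding.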"}, "[2]": {"target": "Neu5Ac(a2-6)Gal(b1-4)GlcNAc(b1-2)Man(a1-3)[Man(a1-6)]Man(b1-4)GlcNAc(b1-4)GlcNAc", "outline": "as §1"}, "[3]": {"target": "Neu5Ac(a2-6)Gal(b1-4)GlcNAc(b1-2)Man(a1-3)[Neu5Ac(a2-3)Gal(b1-4)GlcNAc(b1-2)Man(a1-6)]Man(b1-4)GlcNAc(b1-4)GlcNAc", "outline": "as §1"}, "[4]": {"target": "Neu5Ac(a2-6)Gal(b1-4)GlcNAc(b1-2)Man(a1-3)[Neu5Ac(a2-6)Gal(b1-4)GlcNAc(b1-2)Man(a1-6)]Man(b1-4)GlcNAc(b1-4)GlcNAc", "outline": "as §1"}, "[5]": {"target": "Neu5Ac(a2-6)Gal(b1-4)GlcNAc(b1-2)Man(a1-3)[Neu5Ac(a2-6)Gal(b1-4)GlcNAc(b1-2)Man(a1-6)]Man(b1-4)GlcNAc(b1-4)[Fuc(a1-6)]GlcNAc", "outline": "as §1"}, "[6]": {"target": "Neu5Ac(a2-6)Gal(b1-4)GlcNAc(b1-2)Man(a1-6)Man(b1-4)GlcNAc(b1-4)GlcNAc", "outline": "as §1"}, "[7]": {"target": "Neu5Ac(a2-6)Gal(b1-4)GlcNAc(b1-2)Man(a1-6)[Gal(b1-4)GlcNAc(b1-2)Man(a1-3)]Man(b1-4)GlcNAc(b1-4)GlcNAc", "outline": "as §1"}, "[8]": {"target": "Neu5Ac(a2-6)Gal(b1-4)GlcNAc(b1-2)Man(a1-6)[GlcNAc(b1-2)Man(a1-3)]Man(b1-4)GlcNAc(b1-4)GlcNAc", "outline": "as §1"}, "[9]": {"target": "Neu5Ac(a2-6)Gal(b1-4)GlcNAc(b1-2)Man(a1-6)[Man(a1-3)]Man(b1-4)GlcNAc(b1-4)GlcNAc", "outline": "as §1"}, "[10]": {"target": "Neu5Ac(a2-6)Gal(b1-4)GlcNAc(b1-2)[Neu5Ac(a2-6)Gal(b1-4)GlcNAc(b1-4)]Man(a1-3)[GlcNAc(b1-4)][Neu5Ac(a2-6)Gal(b1-4)GlcNAc(b1-2)[Neu5Ac(a2-6)Gal(b1-4)GlcNAc(b1-6)]Man(a1-6)]Man(b1-4)GlcNAc(b1-4)GlcNAc", "outline": "as §1"}, "[11]": {"target": "Neu5Ac(a2-6)Gal(b1-4)GlcNAc(b1-2)[Neu5Ac(a2-6)Gal(b1-4)GlcNAc(b1-4)]Man(a1-3)[GlcNAc(b1-4)][Neu5Ac(a2-6)Gal(b1-4)GlcNAc(b1-4)Man(a1-6)]Man(b1-4)GlcNAc(b1-4)GlcNAc", "outline": "as §1"}, "[12]": {"target": "Neu5Ac(a2-6)Gal(b1-4)GlcNAc(b1-2)[Neu5Ac(a2-6)Gal(b1-4)GlcNAc(b1-6)]Man(a1-6)[Neu5Ac(a2-6)Gal(b1-4)GlcNAc(b1-2)Man(a1-3)][GlcNAc(b1-4)]Man(b1-4)GlcNAc(b1-4)GlcNAc", "outline": "as §1"}, "[13]": {"target": "Neu5Ac(a2-6)Gal(b1-4)GlcNAc(b1-3)Gal(b1-3)GlcNAc", "outline": "as §1"}, "[14]": {"target": "Neu5Ac(a2-6)Gal(b1-4)GlcNAc(b1-3)Gal(b1-4)GlcNAc", "outline": "as §1"}, "[15]": {"target": "Neu5Ac(a2-6)Gal(b1-4)GlcNAc(b1-3)Gal(b1-4)GlcNAc(b1-2)Man(a1-3)[Neu5Ac(a2-6)Gal(b1-4)GlcNAc(b1-3)Gal(b1-4)GlcNAc(b1-2)Man(a1-6)]GalNAc", "outline": "as §1"}, "[16]": {"target": "Neu5Ac(a2-6)Gal(b1-4)GlcNAc(b1-3)Gal(b1-4)GlcNAc(b1-3)Gal(b1-4)GlcNAc", "outline": "as §1"}, "[17]": {"target": "Neu5Ac(a2-6)Gal(b1-4)GlcNAc(b1-3)Gal(b1-4)GlcNAc(b1-3)Gal(b1-4)GlcNAc(b1-2)Man(a1-3)[Neu5Ac(a2-6)Gal(b1-4)GlcNAc(b1-3)Gal(b1-4)GlcNAc(b1-3)Gal(b1-4)GlcNAc(b1-2)Man(a1-6)]GalNAc", "outline": "as §1"}, "[18]": {"target": "Neu5Ac(a2-6)Gal(b1-4)GlcNAc(b1-3)Gal(b1-4)GlcNAc(b1-3)GalNAc", "outline": "as §1"}, "[19]": {"target": "Neu5Ac(a2-6)Gal(b1-4)GlcNAc(b1-3)Gal(b1-4)GlcNAc(b1-3)[Neu5Ac(a2-6)Gal(b1-4)GlcNAc(b1-3)Gal(b1-4)GlcNAc(b1-6)]GalNAc", "outline": "as §1"}, "[20]": {"target": "Neu5Ac(a2-6)Gal(b1-4)GlcNAc(b1-3)Gal(b1-4)GlcNAc(b1-6)[Gal(b1-3)]GalNAc", "outline": "as §1"}, "[21]": {"target": "Neu5Ac(a2-6)Gal(b1-4)GlcNAc(b1-3)Gal(b1-4)[Fuc(a1-3)]GlcNAc(b1-3)Gal(b1-4)[Fuc(a1-3)]GlcNAc", "outline": "as §1"}, "[22]": {"target": "Neu5Ac(a2-6)Gal(b1-4)GlcNAc(b1-3)GalNAc", "outline": "as §1"}, "[23]": {"target": "Neu5Ac(a2-6)Gal(b1-4)GlcNAc(b1-3)[Neu5Ac(a2-6)Gal(b1-4)GlcNAc(b1-6)]GalNAc", "outline": "as §1"}, "[24]": {"target": "Neu5Ac(a2-6)Gal(b1-4)GlcNAc(b1-6)GalNAc", "outline": "as §1"}, "[25]": {"target": "Neu5Ac(a2-6)Gal(b1-4)GlcNAc(b1-6)[Gal(b1-3)GlcNAc(b1-3)]Gal(b1-4)Glc", "outline": "as §1"}, "[26]": {"target": "Neu5Ac(a2-6)Gal(b1-4)GlcNAc(b1-6)[Gal(b1-3)]GalNAc", "outline": "as §1"}, "[27]": {"target": "Neu5Ac(a2-6)Gal(b1-4)GlcNAc6S", "outline": "as §1"}, "Neu5Ac(a2-6)GalNAc": {"target": "Neu5Ac(a2-6)GalNAc", "outline": "as §1"}, "[28]": {"target": "Neu5Ac(a2-6)GalNAc(b1-4)GlcNAc", "outline": "as §1"}, "[29]": {"target": "Neu5Ac(a2-6)GalNAc(b1-4)GlcNAc6S", "outline": "as §1"}, "[30]": {"target": "Neu5Ac(a2-6)GlcNAc(b1-4)GlcNAc", "outline": "as §1"}},
  "note": "The other results are listed elsewhere or left out.",
  "data": [
    {"binder": "B1", "values": [
      {"measurement": "glycan array binding signal (z-score)", "setting": "[1]", "result": 0.246},
      {"measurement": "glycan array binding signal (z-score)", "setting": "[2]", "result": 2.26},
      {"measurement": "glycan array binding signal (z-score)", "setting": "[3]", "result": -0.312},
      {"measurement": "glycan array binding signal (z-score)", "setting": "[4]", "result": -0.306},
      {"measurement": "glycan array binding signal (z-score)", "setting": "[5]", "result": -0.378},
      {"measurement": "glycan array binding signal (z-score)", "setting": "[6]", "result": -0.686},
      {"measurement": "glycan array binding signal (z-score)", "setting": "[7]", "result": -0.754},
      {"measurement": "glycan array binding signal (z-score)", "setting": "[8]", "result": -0.954},
      {"measurement": "glycan array binding signal (z-score)", "setting": "[9]", "result": -0.892},
      {"measurement": "glycan array binding signal (z-score)", "setting": "[10]", "result": -0.922},
      {"measurement": "glycan array binding signal (z-score)", "setting": "[11]", "result": -0.845},
      {"measurement": "glycan array binding signal (z-score)", "setting": "[12]", "result": -0.795},
      {"measurement": "glycan array binding signal (z-score)", "setting": "[13]", "result": -0.646},
      {"measurement": "glycan array binding signal (z-score)", "setting": "[14]", "result": -0.874},
      {"measurement": "glycan array binding signal (z-score)", "setting": "[15]", "result": -0.809},
      {"measurement": "glycan array binding signal (z-score)", "setting": "[16]", "result": -0.196},
      {"measurement": "glycan array binding signal (z-score)", "setting": "[17]", "result": -0.857},
      {"measurement": "glycan array binding signal (z-score)", "setting": "[18]", "result": -0.981},
      {"measurement": "glycan array binding signal (z-score)", "setting": "[19]", "result": -1.02},
      {"measurement": "glycan array binding signal (z-score)", "setting": "[20]", "result": -0.653},
      {"measurement": "glycan array binding signal (z-score)", "setting": "[21]", "result": -0.03},
      {"measurement": "glycan array binding signal (z-score)", "setting": "[22]", "result": 2.63},
      {"measurement": "glycan array binding signal (z-score)", "setting": "[23]", "result": -0.793},
      {"measurement": "glycan array binding signal (z-score)", "setting": "[24]", "result": 0.866},
      {"measurement": "glycan array binding signal (z-score)", "setting": "[25]", "result": 0.556},
      {"measurement": "glycan array binding signal (z-score)", "setting": "[26]", "result": -0.502},
      {"measurement": "glycan array binding signal (z-score)", "setting": "[27]", "result": 0.953},
      {"measurement": "glycan array binding signal (z-score)", "setting": "Neu5Ac(a2-6)GalNAc", "result": -0.661},
      {"measurement": "glycan array binding signal (z-score)", "setting": "[28]", "result": -0.373},
      {"measurement": "glycan array binding signal (z-score)", "setting": "[29]", "result": -0.543},
      {"measurement": "glycan array binding signal (z-score)", "setting": "[30]", "result": -0.855}
    ]}
  ]
}
